The results are deposited in PubChem (AID651713; NCATS, 2012).

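After 8 h of exposure, a luminescent Caspase-Glo signal in TMD8 lymphoma cells reports apoptosis relative to DMSO (0%) and bortezomib (100%). Each compound was run as a dilution series, in most cases topping out at 46.1 µM, with the whole assay spanning about 0.00039 to 92 µM. The value is the fitted potency (AC50) for caspase activation; a lower number means a more potent compound. Calls follow the curve class: fitted curves with enough effect score 40–100 and are called active, weak, partial or top-dose-only curves score 1–39 and are called inconclusive, and compounds with no curve score 0.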

Values are in µM. All entries here are filed as inconclusive. Only part of the assay is shown, chiefly results filed as inconclusive. A potency from a partial, single-point or poor curve is only a rough figure. Activity scores are not listed here.

- O=C(Nc1ccccc1-c1cn2c(CN3CCNCC3)csc2n1)c1cnc2ccccc2n1 : Potency 33.17 µM (activator, single point)
- COc1cc2c(Oc3ccc(NC(=O)C4(C(=O)Nc5ccc(F)cc5)CC4)cc3F)ccnc2cc1OCCCN1CCOCC1 : Potency 33.17 µM (activator, single point)
- CC(C)c1ccc2c(c1)c(SC(C)(C)C)c(CC(C)(C)C(=O)O)n2Cc1ccc(Cl)cc1 : Potency 29.57 µM (activator, single point)
- CCNC(=O)c1noc(-c2cc(C(C)C)c(O)cc2O)c1-c1ccc(CN2CCOCC2)cc1 : Potency 20.93 µM (activator, partial curve, poor fit)
- O=c1cc(CN2CCOCC2)occ1OCCCCCSc1ccnc2cc(C(F)(F)F)ccc12 : Potency 33.17 µM (activator, single point)
- COc1ccc(C2CC(c3ccccc3)=NN2c2ccc(S(N)(=O)=O)cc2)cc1 (stereo not given) : Potency 33.17 µM (activator, single point)
- CO[C@H]1C[C@@H]2CC[C@@H](C)[C@@](O)(O2)C(=O)C(=O)N2CCCC[C@@H]2C(=O)O[C@H]([C@H](C)C[C@@H]2CC[C@H](OCCO)[C@H](OC)C2)CC(=O)[C@H](C)C=C(C)[C@@H](O)[C@@H](OC)C(=O)[C@H](C)C[C@H](C)C=CC=CC=C1C : Potency 33.17 µM (activator, single point)
- CO[C@H]1C=CC=C(C)C(=O)NC2=CC(=O)C(NCCN(C)C)=C(C[C@@H](C)C[C@H](OC)[C@@H](O)[C@@H](C)C=C(C)[C@@H]1OC(N)=O)C2=O : Potency 41.76 µM (activator, partial curve, poor fit)
- CS(=O)(=O)CCNCc1ccc(-c2ccc3ncnc(Nc4ccc(OCc5cccc(F)c5)c(Cl)c4)c3c2)o1 : Potency 33.17 µM (activator, single point)
- Nc1ccc(-c2ccc3ncc4ccc(=O)n(-c5cccc(C(F)(F)F)c5)c4c3c2)cn1 : Potency 26.35 µM (activator, partial curve, poor fit)
- Cn1cncc1[C@@](N)(c1ccc(Cl)cc1)c1ccc2c(c1)c(-c1cccc(Cl)c1)cc(=O)n2C : Potency 37.22 µM (activator, single point)
- CC1=C[C@@H]2[C@@H]([C@@H](O)C[C@@]3(C)[C@H]2C[C@@H](C)[C@]3(O)C(=O)CO)[C@@]2(C)Cc3cnn(-c4ccccc4)c3C=C12 : Potency 33.17 µM (activator, single point)

For reference, 2 entries once more:

With Nc1ccc(-c2ccc3ncc4ccc(=O)n(-c5cccc(C(F)(F)F)c5)c4c3c2)cn1 the assay gave Potency 26.35 µM (activator, partial curve, poor fit).
With CCNC(=O)c1noc(-c2cc(C(C)C)c(O)cc2O)c1-c1ccc(CN2CCOCC2)cc1 the assay gave Potency 20.93 µM (activator, partial curve, poor fit).